From patent publication US20110104144A1, “METHODS FOR TREATING CUTANEOUS LUPUS USING AMINOISOINDOLINE COMPOUNDS” (CELGENE CORPORATION, priority 2005, published 2011)
Some of these results come from one statement about several compounds together.

Tested on: ICAM-1
Test: HUVEC cell surface expression of ICAM-1 by flow cytometry
Assay type: cell-based, Human
Details: unstimulated, 10 μM, FIG. 1
Description: A) Materials. Human Umbilical Vein Endothelial Cells (HUVEC) sent from LifeBank, were tested in Experiments A-K with several adhesion molecules. […]

## CCOc1cc(C(CS(C)(=O)=O)N2C(=O)c3cccc(NC(C)=O)c3C2=O)ccc1OC (single isomer, unassigned; (+)) [Compound (1), (+)-2-[1-(3-ethoxy-4-methoxyphenyl)-2-methylsulfonylethyl]-4-acetylaminoisoindoline-1,3-dione]
  increase of cell surface expression of ICAM-1: 10-20%

## Nc1cccc2c1C(=O)N(C1CCC(=O)NC1=O)C2=O (centres unmarked) [Compound (2), 4-(amino)-2-(2,6-dioxo(3-piperidyl))-isoindoline-1,3-dione]
  increase of cell surface expression of ICAM-1: 10-20%
